Measured values from paper PMC4567348.
A negative result means that nothing was seen under these conditions. For some of these results: At least one verdict rests on a figure or table, not on a statement of the authors. For some of these results: For at least one entry, the source does not settle the construct or the ends of the probe.

What was measured:
[1] = target: GST-HbCBF1 (Hevea brasiliensis) (UniProt Q4KP31); assay: competition EMSA; conditions: 125-fold molar excess cold competitor vs COR15a probe; 10 mM Tris-HCl pH 7.5, 100 mM KCl, 10% glycerol, 1 mM DTT, 0.1% NP-40, 1 mM spermidine, 0.5 ug fish sperm DNA, 4 ug protein, 1 ng probe, 25 C; recombinant protein; residues 1-231; protein details: N-terminal GST (pGEX-6p-1); label: none (competitor)
[2] = system: GST; assay: EMSA; conditions: 10 mM Tris-HCl pH 7.5, 100 mM KCl, 10% glycerol, 1 mM DTT, 0.1% NP-40, 1 mM spermidine, 0.5 ug fish sperm DNA, 4 ug protein, 1 ng probe, 25 C; recombinant protein; protein details: GST

Row | Sequence | binding result [1] | binding result [2]
1 | TTTCATGGAATCACTGCTTTTTT (double strand) [M3] | no binding | –
2 | TTTCATGGTATGTCTGCTTTTTT (double strand) [M2] | no binding | –
3 | TTTCATGGCCGACCTGCTTTTTT (double strand) [COR15a] | – | no binding
4 | TTTCAAGAATTCACTGCTTTTTT (double strand) [M1] | no binding | –
